This is an account of results in patent US10864252B2, “Anti-SSX-2 T cell receptors and related materials and methods of use” (The United States of America, as represented by the …, priority 2010, dated 2020).

For the series, the system named is Human PBL. In words: TCR expression in transduced PBL by FACS. The following applies: FACS analysis of transduced human PBL. Format: cell-based. On the procedure:
Human PBL were untransduced or transduced with a vector comprising SEQ ID NO: 27 (SSX-2 TCR), SEQ ID NO: 29 (codon-optimized SSX-2 TCR), or SEQ ID NO: 30 (codon-optimized SSX-2 TCR including mouse constant region). Expression was measured by FACS analysis. Mean fluorescence intensity was measured to be 656 for cells transduced with SEQ ID NO: 27 (SSX-2 TCR), 910 for cells transduced with SEQ ID NO: 29 (codon-optimized SSX-2 TCR), and 949 for cells transduced with SEQ ID NO: 30 (codon-optimized SSX-2 TCR including mouse constant region).

B1: SSX2-TCR-WT: HLA-A2 restricted anti-SSX-2 TCR alpha and beta chains encoded by SEQ ID NO: 27, tested as transduced human PBLs (protein)
chain: MSLSSLLKVVTASLWLGPGIAQKITQTQPGMFVQEKEAVTLDCTYDTSDPSYGLFWYKQPSSGEMIFLIYQGSYDQQNATEGRYSLNFQKARKSANLVISASQLGDSAMYFCAMTSGFGNEKLTFGTGTRLTIIPNIQNPDPAVYQLRDSKSSDKSVCLFTDFDSQTNVSQSKDSDVYITDKTVLDMRSMDFKSNSAVAWSNKSDFACANAFNNSIIPEDTFFPSPESSCDVKLVEKSFETDTNLNFQNLSVIGFRILLLKVAGFNLLMTLRLWSSRAKRSGSGATNFSLLKQAGDVEENPGPMGPGLLHWMALCLLGTGHGDAMVIQNPRYQVTQFGKPVTLSCSQTLNHNVMYWYQQKSSQAPKLLFHYYDKDFNNEADTPDNFQSRRPNTSFCFLDIRSPGLGDAAMYLCATSRGQGGQPQHFGDGTRLSILEDLNKVFPPEVAVFEPSEAEISHTQKATLVCLATGFFPDHVELSWWVNGKEVHSGVSTDPQPLKEQPALNDSRYCLSSRLRVSATFWQNPRNHFRCQVQFYGLSENDEWTQDRAKPVTQIVSAEAWGRADCGFTSVSYQQGVLSATILYEILLGKATLYAVLVSALVLMAMVKRKDF
As for B1, the “Mean fluorescence intensity (TCR expression)” value (“Mean fluorescence intensity” for short) stood at 656.

B2: SSX2-TCR-Co Op: codon-optimized anti-SSX-2 TCR alpha and beta chains encoded by SEQ ID NO: 29, tested as transduced human PBLs (protein)
chain: MALSSLLKVVTASLWLGPGIAQKITQTQPGMFVQEKEAVTLDCTYDTSDPSYGLFWYKQPSSGEMIFLIYQGSYDQQNATEGRYSLNFQKARKSANLVISASQLGDSAMYFCAMTSGFGNEKLTFGTGTRLTIIPNIQNPDPAVYQLRDSKSSDKSVCLFTDFDSQTNVSQSKDSDVYITDKTVLDMRSMDFKSNSAVAWSNKSDFACANAFNNSIIPEDTFFPSPESSCDVKLVEKSFETDTNLNFQNLSVIGFRILLLKVAGFNLLMTLRLWSSRAKRSGSGATNFSLLKQAGDVEENPGPMGPGLLHWMALCLLGTGHGDAMVIQNPRYQVTQFGKPVTLSCSQTLNHNVMYWYQQKSSQAPKLLFHYYDKDFNNEADTPDNFQSRRPNTSFCFLDIRSPGLGDAAMYLCATSRGQGGQPQHFGDGTRLSILEDLNKVFPPEVAVFEPSEAEISHTQKATLVCLATGFFPDHVELSWWVNGKEVHSGVSTDPQPLKEQPALNDSRYCLSSRLRVSATFWQNPRNHFRCQVQFYGLSENDEWTQDRAKPVTQIVSAEAWGRADCGFTSVSYQQGVLSATILYEILLGKATLYAVLVSALVLMAMVKRKDF
Regarding B2, the “Mean fluorescence intensity” value was 910.

B3: SSX2-TCR-MCR: codon-optimized human/mouse chimeric anti-SSX-2 TCR with mouse constant region, encoded by SEQ ID NO: 30, tested as transduced human PBLs (protein)
chain: MALSSLLKVVTASLWLGPGIAQKITQTQPGMFVQEKEAVTLDCTYDTSDPSYGLFWYKQPSSGEMIFLIYQGSYDQQNATEGRYSLNFQKARKSANLVISASQLGDSAMYFCAMTSGFGNEKLTFGTGTRLTIIPNDIQNPEPAVYQLKDPRSQDSTLCLFTDFDSQINVPKTMESGTFITDKTVLDMKAMDSKSNGAIAWSNQTSFTCQDIFKETNATYPSSDVPCDATLTEKSFETDMNLNFQNLSVMGLRILLLKVAGFNLLMTLRLWSSRAKRSGSGATNFSLLKQAGDVEENPGPMGPGLLHWMALCLLGTGHGDAMVIQNPRYQVTQFGKPVTLSCSQTLNHNVMYWYQQKSSQAPKLLFHYYDKDFNNEADTPDNFQSRRPNTSFCFLDIRSPGLGDAAMYLCATSRGQGGQPQHFGDGTRLSILEDLRNVTPPKVSLFEPSKAEIANKQKATLVCLARGFFPDHVELSWWVNGKEVHSGVSTDPQAYKESNYSYCLSSRLRVSATFWHNPRNHFRCQVQFHGLSEEDKWPEGSPKPVTQNISAEAWGRACGITSSYQQGVLSATILYEILLGKATLYAVLVSTLVVMAMVKRKNS
Take B3: the “Mean fluorescence intensity” value is listed as 949.
